The values that follow come from the supplement of paper PMC12067093, “Discovery and optimisation of a covalent ligand for TRIM25 and its application to targeted protein ubiquitination” (Chemical Science, 2025).

The chains behind the UniProt entries cited, without tags or fusion partners. Where a name states a change or a piece, a line headed by the entry shows the natural chain unless it says otherwise.
UniProt Q92499: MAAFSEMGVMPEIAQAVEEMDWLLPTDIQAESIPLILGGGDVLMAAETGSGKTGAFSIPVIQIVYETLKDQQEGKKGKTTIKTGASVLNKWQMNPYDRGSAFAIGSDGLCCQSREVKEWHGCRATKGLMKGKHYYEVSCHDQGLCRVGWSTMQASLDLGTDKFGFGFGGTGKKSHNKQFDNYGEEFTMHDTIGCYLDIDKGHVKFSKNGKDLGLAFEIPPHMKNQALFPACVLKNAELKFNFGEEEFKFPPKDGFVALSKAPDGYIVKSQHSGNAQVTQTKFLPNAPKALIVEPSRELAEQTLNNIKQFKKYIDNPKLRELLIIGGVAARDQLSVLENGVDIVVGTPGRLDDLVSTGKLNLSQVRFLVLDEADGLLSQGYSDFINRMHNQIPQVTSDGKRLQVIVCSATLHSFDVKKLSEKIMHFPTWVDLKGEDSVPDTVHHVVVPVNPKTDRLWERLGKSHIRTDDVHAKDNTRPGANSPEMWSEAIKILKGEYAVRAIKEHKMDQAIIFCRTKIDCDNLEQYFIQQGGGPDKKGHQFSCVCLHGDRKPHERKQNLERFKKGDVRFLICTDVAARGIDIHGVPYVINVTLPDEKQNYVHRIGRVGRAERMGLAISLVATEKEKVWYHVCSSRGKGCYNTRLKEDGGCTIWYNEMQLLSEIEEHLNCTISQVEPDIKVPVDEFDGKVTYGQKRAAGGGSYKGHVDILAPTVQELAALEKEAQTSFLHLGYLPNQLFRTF
UniProt Q6IAN0: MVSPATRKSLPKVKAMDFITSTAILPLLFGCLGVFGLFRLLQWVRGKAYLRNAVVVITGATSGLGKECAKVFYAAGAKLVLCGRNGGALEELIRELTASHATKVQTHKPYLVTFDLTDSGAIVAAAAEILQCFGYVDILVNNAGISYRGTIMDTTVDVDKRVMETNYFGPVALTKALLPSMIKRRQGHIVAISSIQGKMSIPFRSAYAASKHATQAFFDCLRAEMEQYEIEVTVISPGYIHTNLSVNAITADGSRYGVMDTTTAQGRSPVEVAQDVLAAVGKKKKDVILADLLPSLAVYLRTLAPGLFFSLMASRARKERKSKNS
UniProt O00148, whole entry, looked up: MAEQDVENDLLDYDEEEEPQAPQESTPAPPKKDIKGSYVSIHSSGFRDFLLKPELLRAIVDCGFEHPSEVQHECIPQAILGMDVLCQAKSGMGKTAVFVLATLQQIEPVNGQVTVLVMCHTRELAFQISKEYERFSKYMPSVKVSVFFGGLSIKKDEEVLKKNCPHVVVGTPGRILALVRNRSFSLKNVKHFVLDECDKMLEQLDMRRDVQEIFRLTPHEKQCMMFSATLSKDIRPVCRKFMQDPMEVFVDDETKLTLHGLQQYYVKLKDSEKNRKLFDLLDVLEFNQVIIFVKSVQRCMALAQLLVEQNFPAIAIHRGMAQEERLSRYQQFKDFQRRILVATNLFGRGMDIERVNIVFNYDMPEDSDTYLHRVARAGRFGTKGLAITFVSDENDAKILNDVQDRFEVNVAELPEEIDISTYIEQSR
UniProt Q7L014: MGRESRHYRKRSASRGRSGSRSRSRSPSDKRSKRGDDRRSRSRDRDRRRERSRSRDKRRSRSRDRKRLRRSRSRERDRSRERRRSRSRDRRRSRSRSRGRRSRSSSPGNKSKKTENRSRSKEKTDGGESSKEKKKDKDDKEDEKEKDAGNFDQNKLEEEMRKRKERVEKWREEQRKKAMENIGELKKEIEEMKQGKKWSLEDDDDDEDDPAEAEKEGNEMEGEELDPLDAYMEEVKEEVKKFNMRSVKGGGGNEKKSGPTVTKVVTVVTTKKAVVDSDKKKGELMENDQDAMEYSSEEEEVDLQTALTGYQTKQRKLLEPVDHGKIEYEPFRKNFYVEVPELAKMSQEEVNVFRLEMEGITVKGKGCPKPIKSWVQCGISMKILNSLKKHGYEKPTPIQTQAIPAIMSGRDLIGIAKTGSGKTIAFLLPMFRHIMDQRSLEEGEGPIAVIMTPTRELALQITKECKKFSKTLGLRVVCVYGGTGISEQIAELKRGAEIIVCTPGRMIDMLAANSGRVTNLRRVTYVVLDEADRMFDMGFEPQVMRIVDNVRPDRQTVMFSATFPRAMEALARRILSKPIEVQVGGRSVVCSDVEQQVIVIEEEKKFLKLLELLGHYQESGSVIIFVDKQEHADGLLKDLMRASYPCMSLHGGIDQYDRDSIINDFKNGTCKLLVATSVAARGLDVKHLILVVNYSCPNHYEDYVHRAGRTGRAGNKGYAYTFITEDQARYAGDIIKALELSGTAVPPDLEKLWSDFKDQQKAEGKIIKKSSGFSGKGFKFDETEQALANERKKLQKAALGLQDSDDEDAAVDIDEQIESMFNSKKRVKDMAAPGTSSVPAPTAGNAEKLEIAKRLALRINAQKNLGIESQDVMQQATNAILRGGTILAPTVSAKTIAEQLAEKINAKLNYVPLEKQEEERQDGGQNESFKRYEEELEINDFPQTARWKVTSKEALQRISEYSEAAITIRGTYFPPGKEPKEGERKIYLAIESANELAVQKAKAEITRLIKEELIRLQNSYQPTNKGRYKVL
UniProt Q9NVP1: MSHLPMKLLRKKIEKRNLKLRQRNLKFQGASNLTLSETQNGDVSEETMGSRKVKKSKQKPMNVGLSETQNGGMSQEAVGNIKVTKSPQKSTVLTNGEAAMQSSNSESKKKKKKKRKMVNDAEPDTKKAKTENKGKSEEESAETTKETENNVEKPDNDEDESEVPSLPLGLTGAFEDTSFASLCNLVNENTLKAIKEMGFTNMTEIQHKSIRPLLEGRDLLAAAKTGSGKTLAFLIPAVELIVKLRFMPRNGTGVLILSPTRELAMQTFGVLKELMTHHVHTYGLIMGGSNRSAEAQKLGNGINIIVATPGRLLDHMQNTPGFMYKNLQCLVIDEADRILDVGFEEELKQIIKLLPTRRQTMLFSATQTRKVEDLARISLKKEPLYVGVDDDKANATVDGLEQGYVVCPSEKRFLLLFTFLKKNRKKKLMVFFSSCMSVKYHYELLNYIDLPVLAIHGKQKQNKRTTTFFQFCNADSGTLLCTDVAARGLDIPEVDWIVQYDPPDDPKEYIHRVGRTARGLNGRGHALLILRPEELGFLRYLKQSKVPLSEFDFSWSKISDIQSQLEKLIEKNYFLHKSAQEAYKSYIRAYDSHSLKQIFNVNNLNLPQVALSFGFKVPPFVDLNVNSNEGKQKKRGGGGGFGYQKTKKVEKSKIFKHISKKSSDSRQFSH
UniProt Q16531, whole entry, looked up: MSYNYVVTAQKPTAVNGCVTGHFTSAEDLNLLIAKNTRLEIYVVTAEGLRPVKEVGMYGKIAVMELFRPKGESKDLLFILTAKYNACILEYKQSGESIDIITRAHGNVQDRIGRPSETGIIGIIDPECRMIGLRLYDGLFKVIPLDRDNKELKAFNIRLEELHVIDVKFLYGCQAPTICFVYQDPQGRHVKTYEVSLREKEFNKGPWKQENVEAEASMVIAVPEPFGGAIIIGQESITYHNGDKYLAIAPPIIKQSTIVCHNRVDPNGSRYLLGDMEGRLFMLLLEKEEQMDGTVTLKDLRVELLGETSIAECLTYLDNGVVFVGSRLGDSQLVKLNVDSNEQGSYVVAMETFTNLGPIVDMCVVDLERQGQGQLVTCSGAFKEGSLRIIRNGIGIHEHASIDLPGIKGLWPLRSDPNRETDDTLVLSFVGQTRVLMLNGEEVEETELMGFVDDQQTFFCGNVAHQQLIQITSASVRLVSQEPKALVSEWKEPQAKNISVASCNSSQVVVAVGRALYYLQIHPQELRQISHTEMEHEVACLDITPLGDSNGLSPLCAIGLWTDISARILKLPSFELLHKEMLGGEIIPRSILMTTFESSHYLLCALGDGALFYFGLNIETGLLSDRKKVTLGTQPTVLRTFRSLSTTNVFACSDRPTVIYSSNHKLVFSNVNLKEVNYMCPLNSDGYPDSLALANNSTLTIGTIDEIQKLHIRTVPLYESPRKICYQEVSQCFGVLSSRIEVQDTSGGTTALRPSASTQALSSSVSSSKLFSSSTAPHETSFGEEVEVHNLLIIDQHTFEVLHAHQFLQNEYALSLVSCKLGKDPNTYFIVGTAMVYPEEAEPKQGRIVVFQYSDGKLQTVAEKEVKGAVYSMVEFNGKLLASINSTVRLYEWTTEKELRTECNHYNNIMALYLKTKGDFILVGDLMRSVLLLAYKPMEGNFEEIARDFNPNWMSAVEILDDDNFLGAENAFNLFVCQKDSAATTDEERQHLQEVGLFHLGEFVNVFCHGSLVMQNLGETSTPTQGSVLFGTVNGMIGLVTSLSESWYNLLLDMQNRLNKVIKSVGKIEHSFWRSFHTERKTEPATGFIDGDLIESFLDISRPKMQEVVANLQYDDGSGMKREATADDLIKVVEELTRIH
UniProt Q13574: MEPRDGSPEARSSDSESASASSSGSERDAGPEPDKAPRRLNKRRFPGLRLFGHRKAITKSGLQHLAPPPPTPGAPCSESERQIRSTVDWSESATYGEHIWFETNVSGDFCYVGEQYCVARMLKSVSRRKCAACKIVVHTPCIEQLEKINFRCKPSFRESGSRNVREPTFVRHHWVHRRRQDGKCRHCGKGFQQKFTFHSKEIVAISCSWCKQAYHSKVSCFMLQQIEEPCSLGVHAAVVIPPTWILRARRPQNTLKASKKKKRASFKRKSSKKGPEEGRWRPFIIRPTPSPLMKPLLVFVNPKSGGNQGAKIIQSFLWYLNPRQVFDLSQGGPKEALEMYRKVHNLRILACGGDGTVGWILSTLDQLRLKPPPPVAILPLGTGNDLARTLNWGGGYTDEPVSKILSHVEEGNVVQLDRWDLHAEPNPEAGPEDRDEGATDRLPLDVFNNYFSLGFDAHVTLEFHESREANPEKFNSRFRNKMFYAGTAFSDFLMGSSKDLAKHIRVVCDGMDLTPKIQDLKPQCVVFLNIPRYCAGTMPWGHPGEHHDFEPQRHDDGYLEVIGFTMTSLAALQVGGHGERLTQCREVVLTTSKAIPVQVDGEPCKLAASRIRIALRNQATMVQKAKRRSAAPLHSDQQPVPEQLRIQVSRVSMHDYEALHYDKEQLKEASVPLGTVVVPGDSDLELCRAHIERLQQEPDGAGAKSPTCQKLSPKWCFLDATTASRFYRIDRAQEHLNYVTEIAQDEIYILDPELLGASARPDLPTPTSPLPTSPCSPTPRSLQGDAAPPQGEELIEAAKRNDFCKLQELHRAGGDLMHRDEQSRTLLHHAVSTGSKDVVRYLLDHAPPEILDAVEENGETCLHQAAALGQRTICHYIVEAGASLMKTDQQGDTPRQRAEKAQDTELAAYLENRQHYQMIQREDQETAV
UniProt Q9H4E7, whole entry, looked up: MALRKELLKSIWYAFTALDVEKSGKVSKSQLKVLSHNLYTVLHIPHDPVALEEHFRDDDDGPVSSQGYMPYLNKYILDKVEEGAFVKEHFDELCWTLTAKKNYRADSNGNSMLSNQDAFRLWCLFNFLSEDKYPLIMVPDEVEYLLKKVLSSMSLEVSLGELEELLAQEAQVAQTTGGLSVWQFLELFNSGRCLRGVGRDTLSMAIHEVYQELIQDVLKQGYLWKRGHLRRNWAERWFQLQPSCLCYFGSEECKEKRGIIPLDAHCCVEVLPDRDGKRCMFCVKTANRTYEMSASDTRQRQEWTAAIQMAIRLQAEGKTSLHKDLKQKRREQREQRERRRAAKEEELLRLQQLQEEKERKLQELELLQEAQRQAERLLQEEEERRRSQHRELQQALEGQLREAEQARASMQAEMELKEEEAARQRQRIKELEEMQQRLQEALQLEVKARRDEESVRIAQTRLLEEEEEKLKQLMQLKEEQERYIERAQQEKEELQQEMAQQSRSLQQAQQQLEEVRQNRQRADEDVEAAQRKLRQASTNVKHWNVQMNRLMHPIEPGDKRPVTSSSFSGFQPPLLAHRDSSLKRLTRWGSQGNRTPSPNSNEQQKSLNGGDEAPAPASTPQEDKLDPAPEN
UniProt Q5T1V6: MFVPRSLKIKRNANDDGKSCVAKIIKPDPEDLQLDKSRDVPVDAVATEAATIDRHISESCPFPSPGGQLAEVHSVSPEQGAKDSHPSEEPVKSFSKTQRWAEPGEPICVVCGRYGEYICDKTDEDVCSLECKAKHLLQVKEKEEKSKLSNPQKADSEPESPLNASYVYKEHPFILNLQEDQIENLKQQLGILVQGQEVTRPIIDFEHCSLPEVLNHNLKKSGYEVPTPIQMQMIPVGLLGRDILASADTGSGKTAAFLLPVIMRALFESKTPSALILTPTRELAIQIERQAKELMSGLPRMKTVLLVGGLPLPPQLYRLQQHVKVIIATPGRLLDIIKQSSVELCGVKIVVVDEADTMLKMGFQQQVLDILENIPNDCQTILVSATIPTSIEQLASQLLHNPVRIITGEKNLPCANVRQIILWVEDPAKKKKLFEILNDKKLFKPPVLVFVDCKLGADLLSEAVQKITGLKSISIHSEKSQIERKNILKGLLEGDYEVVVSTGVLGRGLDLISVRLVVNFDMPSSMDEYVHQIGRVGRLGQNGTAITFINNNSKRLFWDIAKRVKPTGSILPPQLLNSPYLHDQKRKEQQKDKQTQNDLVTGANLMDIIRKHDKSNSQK

Compound in the assay: Cc1cc(ccc1-c1ccccc1)C(=O)N1CCCN(CC1)C(=O)CCl [compound 10]
The assay is described as follows: probe-labelled cysteine peptide fold change vs DMSO (competition) (log2 fold change); higher = less target engagement (more negative = stronger competition). The settings on record: THP-1, incubation time: 4 h.

Some of the results follow.
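Also: competitive profiling in live THP-1 cells: cysteine peptides tagged with an iodoacetamide desthiobiotin (IA-DTB) probe, intensity after compound treatment relative to DMSO-treated cells.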

Turning to “DDB2_Q92466_322_VYSASQWDCPLGLIPHPHR (UniProt Q92466)”, the “probe-labelled cysteine peptide fold change” value was 0.00758 (10 µM) and -0.144 (50 µM).
On to “DDX1_Q92499_231_NQALFPACVLK (UniProt Q92499)”, for which the “probe-labelled cysteine peptide fold change” value is -0.209 (10 µM) and 0.0128 (50 µM).
With “DHRS7B_Q6IAN0_220_HATQAFFDCLR (UniProt Q6IAN0)”, the “probe-labelled cysteine peptide fold change” value reads like this: (10 µM) -0.0211; (50 µM) 0.0381.
Regarding “DDX39A_O00148_238_DIRPVCR (UniProt O00148)”, the “probe-labelled cysteine peptide fold change” value by setting is: (10 µM) -0.1; (50 µM) -0.00495.
The like results for “DDX1_Q92499_519_TKIDCDNLEQYFIQQGGGPDK (UniProt Q92499)” were, in that order, -0.159 and -0.326.
Take “DDX41_Q9UJV9_338_MVSLDICR (UniProt Q9UJV9)”: the “probe-labelled cysteine peptide fold change” value is -0.0253 (10 µM) and -0.0851 (50 µM).
With “DDX46_Q7L014_696_HLILVVNYSCPNHYEDYVHR (UniProt Q7L014)”, the “probe-labelled cysteine peptide fold change” value reads like this: (10 µM) -0.0835; (50 µM) 0.126.
For “DDX20_Q9UHI6_181_CHIAVGSPGR (UniProt Q9UHI6)”, in that order: 0.143 and -0.0618.
With “DDX21_Q9NR30_445_TIIFCETKK (UniProt Q9NR30)”, the “probe-labelled cysteine peptide fold change” value is, setting by setting: (10 µM) 0.0956; (50 µM) -0.0526.
With “DDX1_Q92499_406_LQVIVCSATLHSFDVK (UniProt Q92499)”, the “probe-labelled cysteine peptide fold change” value came to 0.0985 (10 µM) and 0.138 (50 µM).
For “DGKQ_P52824_638_LLNPHQVFDLTNGGPLPGLHLFSQVPCFR (UniProt P52824)”, in that order: -0.334 and -0.941.
For the target “DDX60L_Q5H9U9_1201_ILEISEDCTYADVK (UniProt Q5H9U9)”, the “probe-labelled cysteine peptide fold change” value reads like this: (10 µM) 0.128; (50 µM) 0.448.
On to “DDX18_Q9NVP1_329_NLQCLVIDEADR (UniProt Q9NVP1)”, for which the “probe-labelled cysteine peptide fold change” value runs as follows: (10 µM) 0.137; (50 µM) 0.39.
The like results for “DDX1_Q92499_145_HYYEVSCHDQGLCR (UniProt Q92499)” were, in that order, 0.0291 and 0.0413.
On to “DELE1_Q14154_286_AQYNAGLCHEHGR (UniProt Q14154)”, for which the “probe-labelled cysteine peptide fold change” value reads like this: (10 µM) 0.308; (50 µM) 0.837.
“DDX60L_Q5H9U9_615_KLEDYLTSCASNSVK (UniProt Q5H9U9)”: the “probe-labelled cysteine peptide fold change” value by setting is: (10 µM) -0.279; (50 µM) 0.172.
Take “DDX24_Q9GZR7_639_LEDCVLLATDVAAR (UniProt Q9GZR7)”: the “probe-labelled cysteine peptide fold change” value came out at 0.213 (10 µM) and 0.377 (50 µM).
As for “DDX39A_O00148_223_QCMMFSATLSK (UniProt O00148)”, the “probe-labelled cysteine peptide fold change” value is -0.0178 (10 µM) and -0.165 (50 µM).
The like results for “DDB1_Q16531_128_PSETGIIGIIDPECR (UniProt Q16531)” were, in that order, 0.0742 and 0.0729.
Consider “DGKZ_Q13574_876_EASVPLGTVVVPGDSDLELCR (UniProt Q13574)”, for which the “probe-labelled cysteine peptide fold change” value is, setting by setting: (10 µM) 0.00657; (50 µM) 0.818.
Turning to “DEF6_Q9H4E7_94_EHFDELCWTLTAK (UniProt Q9H4E7)”, the “probe-labelled cysteine peptide fold change” value (10 µM) is 0.0581 and the “probe-labelled cysteine peptide fold change” value (50 µM) is -0.0179.
Consider “DDX58_O95786_869_QNCSHDWGIHVK (UniProt O95786)”, for which the “probe-labelled cysteine peptide fold change” value reads like this: (10 µM) -0.162; (50 µM) -0.146.
With “DGKZ_Q13574_1063_TICHYIVEAGASLMK (UniProt Q13574)”, the “probe-labelled cysteine peptide fold change” value (10 µM) is 0.112 and the “probe-labelled cysteine peptide fold change” value (50 µM) was -0.107.
With “DDX51_Q8N8A6_253_GGYRPSDLCVSAPTGSGK (UniProt Q8N8A6)”, the “probe-labelled cysteine peptide fold change” value was -0.0905 (10 µM) and 0.262 (50 µM).
“DDX46_Q7L014_377_SWVQCGISMK (UniProt Q7L014)”: the “probe-labelled cysteine peptide fold change” value reads like this: (10 µM) -0.00718; (50 µM) -0.155.
Take “DEPDC5_O75140_416_SQLFCNSFTPR (UniProt O75140)”: the “probe-labelled cysteine peptide fold change” value runs as follows: (10 µM) -0.124; (50 µM) -0.486.
Regarding “DDB1_Q16531_903_TECNHYNNIMALYLK (UniProt Q16531)”, the “probe-labelled cysteine peptide fold change” value (10 µM) is -0.0989 and the “probe-labelled cysteine peptide fold change” value (50 µM) was determined as 0.0912.
As to “DDX6_P26196_390_NLVCTDLFTR (UniProt P26196)”, the “probe-labelled cysteine peptide fold change” value (10 µM) is 0.156 and the “probe-labelled cysteine peptide fold change” value (50 µM) is -0.0746.
The like results for “DDX5_P17844_89_GHNCPKPVLNFYEANFPANVMDVIAR (UniProt P17844)” were, in that order, -0.207 and -0.128.
The like results for “DDX18_Q9NVP1_407_ANATVDGLEQGYVVCPSEK (UniProt Q9NVP1)” were, in that order, -0.401 and 0.698.
For “DENND4A_Q7Z401_952_GSADCLPK (UniProt Q7Z401)”, in that order: -0.312 and 0.101.
Consider “DEF6_Q9H4E7_266+267_GIIPLDAHCCVEVLPDRDGKR (UniProt Q9H4E7)”, for which the “probe-labelled cysteine peptide fold change” value is, setting by setting: (10 µM) 0.0112; (50 µM) -0.772.
Consider “DENND3_A2RUS2_128_DCLSCLLALLK (UniProt A2RUS2)”, for which the “probe-labelled cysteine peptide fold change” value is, setting by setting: (10 µM) -0.0541; (50 µM) -0.0692.
On to “DGKH_Q86XP1_1014_ICDAATIHCLLEQELAHAVNACSHALNK (UniProt Q86XP1)”, for which the “probe-labelled cysteine peptide fold change” value is -0.0302 (10 µM) and -0.505 (50 µM).
For “DDX59_Q5T1V6_453_LFKPPVLVFVDCK (UniProt Q5T1V6)”, in that order: -0.33 and -1.68.
Consider “DDX59_Q5T1V6_414_NLPCANVR (UniProt Q5T1V6)”, for which the “probe-labelled cysteine peptide fold change” value by setting is: (10 µM) -0.0371; (50 µM) -0.716.
Regarding “DDX23_Q9BUQ8_519_MGCEIVIATPGR (UniProt Q9BUQ8)”, the “probe-labelled cysteine peptide fold change” value (10 µM) worked out at 0.214 and the “probe-labelled cysteine peptide fold change” value (50 µM) was found to be 0.193.
